{
  "source": "PubChem BioAssay AID1347076",
  "about": "(National Center for Advancing Translational Sciences (NCATS), 2019)",
  "note": "Where “and” joins values, the source holds several entries; their conditions need not be identical. Identical values can stand only once. The campaign covered roughly 400,000 compounds. About 13,000 (3.2%) were called active. Inconclusive means that the source gave no clear call. Such entries were picked first, then a sample of the others. The call rests on the fitted dose curve; in most records, active means well fitted cell-killing curve with a large enough effect; inconclusive means small, poorly fitted or top-dose-only effect, or effect the other way; inactive means flat fitted curve, though single readings scatter. Potencies beside an inconclusive call are fits to weak or partial responses and may not hold up. Potency means the concentration at half of the fitted maximal effect.",
  "data": [
    {"assay": "qHTS assay for MDR1-selective chemotherapeutics: Primary screen using the drug-selected MDR subline cells KB-V1; further: nearly all actives have a fitted effect of over 60% in size", "conditions": "KB-V1 MDR cells viability, CellTiter-Glo, 72 h; series mostly up to 46.1 µM", "how_it_was_run": "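Cytotoxicity via CellTiter-Glo luminescence after 72 h compound exposure at 37 degrees C. Cells: drug-selected KB-V1 line, DMEM phenol-red free plus 10% FBS. Compounds tested at multiple concentrations; normalized data fitted to concentration-effect curves.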", "values": [
      {"smiles": "CCOc1ccccc1N(CC(=O)NC1CCCCC1)C(=O)CCC(=O)Nc1cc(C)ccn1", "Potency": "inconclusive: 10.3 µM [cytotoxic, partial curve]"},
      {"smiles": "COc1cc(OC)nc(Nc2nc(C(N)COCc3ccccc3)cs2)n1", "note": "(stereo not given)", "Potency": "inactive"},
      {"smiles": "Cc1ccc(/C=C/C2=NN(Cc3ccccc3Cl)C(=O)CC2)cc1", "Potency": "inconclusive: 29.1 µM [cytotoxic, single point]"},
      {"smiles": "C=CCn1cnc2c(c1=O)c1nc3ccccc3nc1n2/N=C/c1ccccn1", "Potency": "inconclusive: 8.2 µM [cytotoxic, partial curve, poor fit]"},
      {"smiles": "CCCc1cc(=O)[nH]c(SCC(=O)Nc2nc(-c3ccccc3)cs2)n1", "Potency": "inactive"},
      {"smiles": "Fc1cccc(Cl)c1Cn1nnc2c(NCc3ccccn3)ncnc21", "Potency": "inconclusive: 32.6 µM [cytotoxic, single point]"},
      {"smiles": "COc1cc(/C=C/c2ccnc3ccccc23)ccc1N(C)C", "Potency": "inconclusive: 29.1 µM [cytotoxic, partial curve, poor fit]"},
      {"smiles": "CC(=O)NS(=O)(=O)c1ccc(NC(=O)COc2ccc(C(=O)c3ccccc3)cc2)cc1", "Potency": "inactive"},
      {"smiles": "COCCn1c(SCC(=O)c2cc(C)ccc2C)nc2cc(C(=O)NC3CCCC3)ccc2c1=O", "Potency": "inactive"},
      {"smiles": "CCc1nc2ccc(C(=O)NCc3ccc(OC)cc3)cn2c1N(CC)CCOC", "Potency": "inconclusive: 7.31 µM [cytotoxic, partial curve]"},
      {"smiles": "O=C(Nc1ccc(Cl)cc1)N1CCc2ccccc2C1", "Potency": "inactive"},
      {"smiles": "Cc1ccc(-n2nc3c(N4CCC(C(=O)NC(C)C)CC4)nnc(C)c3c2C)cc1", "Potency": "inconclusive: 29.1 µM [rising, single point]"},
      {"smiles": "Cc1ccc(OCc2nnc(SCC(=O)N3c4ccccc4Sc4ccc(Cl)cc43)o2)cc1", "Potency": "active: 8.2 µM"},
      {"smiles": "Cc1[nH]c2ccccc2c1C(=O)CN1C(=O)C(=O)N(Cc2ccco2)C1=O", "Potency": "inactive"},
      {"smiles": "O=C(Cn1cnc2cc([N+](=O)[O-])ccc2c1=O)Nc1ccc2c(c1)OCO2", "Potency": "inconclusive: 20.6 µM [rising, partial curve, poor fit]"},
      {"smiles": "N#CCCn1cc(C(=O)Nc2ccc(C(=O)O)cc2)c(-c2ccc([N+](=O)[O-])cc2)n1", "Potency": "inactive"},
      {"smiles": "CCCS(=O)(=O)Nc1c(C(=O)O)[nH]c2ccc(OC)cc12", "Potency": "inconclusive: 29.1 µM [rising, single point]"},
      {"smiles": "Cc1ccc(S(=O)(=O)Nc2ncnc3sc(C)c(C)c23)cc1", "Potency": "active: 3.66 µM"},
      {"smiles": "O=C(CC(Nc1ccccc1)C(=O)O)c1ccccc1", "note": "(stereo not given)", "Potency": "inactive"},
      {"smiles": "Cc1ccc(NC(=O)c2ccc(NCCCN3CCC(C)CC3)c([N+](=O)[O-])c2)c(C)c1", "Potency": "inactive"},
      {"smiles": "Cc1c(C(=O)NNC(=S)Nc2cccc(Cl)c2)nnn1-c1ccccc1", "Potency": "inconclusive: 20.6 µM [cytotoxic, single point]"},
      {"smiles": "Cc1cc(O)c2c(C)c(CC(=O)N3CCN(C(=O)C4COc5ccccc5O4)CC3)c(=O)oc2c1", "note": "(stereo not given)", "Potency": "inconclusive: 29.1 µM [rising, single point]"},
      {"smiles": "COc1cc(F)ccc1-c1cc(C(=O)NCC2CCCCC2)[nH]n1", "Potency": "inactive"},
      {"smiles": "CCC(CC)C(=O)Nc1cccc(C(=O)NC(C)(C)C)c1", "Potency": "inconclusive: 16.4 µM [cytotoxic, partial curve, poor fit]"},
      {"smiles": "CCOc1ccccc1NC(=O)C1CCN(S(=O)(=O)c2c(C)noc2/C=C/c2ccc(C)cc2)CC1", "Potency": "inactive"},
      {"smiles": "O=C(CC1N=C2c3ccccc3N=C(SCc3ccccc3Cl)N2C1=O)NCc1ccco1", "note": "(stereo not given)", "Potency": "inconclusive: 20.6 µM [cytotoxic, single point]"},
      {"smiles": "COc1ccc(CCC(C)NCc2ccc(F)cc2)cc1", "note": "(stereo not given)", "Potency": "inconclusive: 4.61 µM [cytotoxic, partial curve, poor fit]"},
      {"smiles": "Cc1ccccc1NC(=O)CSc1nnc(-c2ccccc2)n1-c1ccccc1", "Potency": "inconclusive: 4.61 µM [cytotoxic, full curve, poor fit]"},
      {"smiles": "Cc1ccc(-c2csc(N(Cc3ccco3)C(=O)c3cccs3)n2)cc1", "Potency": "inconclusive: 29.1 µM [cytotoxic, single point]"},
      {"smiles": "O=C1N[C@@H](Cc2ccccc2)C(=O)N2[C@@H]1C[C@]1(Br)c3ccccc3N(S(=O)(=O)c3ccccc3)[C@H]21", "Potency": "inactive"},
      {"smiles": "CCCCC(CC)C(=O)Nc1ccc(S(=O)(=O)N2CCCC2)cc1", "note": "(stereo not given)", "Potency": "inconclusive: 4.11 µM [cytotoxic, full curve]"},
      {"smiles": "COC(=O)/C(=C/c1ccc2c(c1)c1ccccc1n2C)NC(=O)c1ccccc1", "Potency": "inconclusive: 16.4 µM [cytotoxic, single point]"},
      {"smiles": "O=C(c1cc2c(=O)oc3ccccc3c2s1)N1CCN(c2cccc(Cl)c2)CC1", "Potency": "inactive"},
      {"smiles": "CCOC(=O)[C@]12CCCC=C1N(Cc1cccc3ccccc13)C(=O)[C@H](CC(=O)NCc1cccc3ccccc13)C2", "Potency": "inconclusive: 20.6 µM [cytotoxic, single point]"},
      {"smiles": "CCOc1cc(-c2ccccc2)nc2c1CN(S(=O)(=O)c1ccc(C)cc1)C(c1cccc(Cl)c1)C2", "note": "(stereo not given)", "Potency": "inconclusive: 3.66 µM [cytotoxic, full curve]"},
      {"smiles": "O=C(COc1ccccc1F)Nc1ccc2[nH]c(=O)[nH]c2c1", "Potency": "active: 6.51 µM"},
      {"smiles": "NC1=NC[C@H](Cc2ccc(O)cc2)N1CCCCC1CCCCC1", "Potency": "inconclusive: 29.1 µM [rising, single point]"},
      {"smiles": "O=C(c1cc2ccccc2o1)N1CCN(S(=O)(=O)/C=C/c2ccccc2)CC1", "Potency": "inconclusive: 6.51 µM [cytotoxic, partial curve]"},
      {"smiles": "CCOC(=O)CC1COc2ccccc2N1C(=O)c1ccc(C)cc1", "note": "(stereo not given)", "Potency": "active: 18.4 µM"},
      {"smiles": "Cc1ccc(S(=O)(=O)N(C)C[C@H]2OCCCC[C@@H](C)Oc3ccc(NC(=O)Cc4ccccc4)cc3C(=O)N([C@H](C)CO)C[C@@H]2C)cc1", "Potency": "inactive"},
      {"smiles": "CCOc1cnc(-c2ccc(Cl)cc2)o1", "Potency": "inconclusive: 29.1 µM [rising, single point]"},
      {"smiles": "CC1(C)CCC(C)(C)NC(=S)N1", "Potency": "inactive"},
      {"smiles": "Cc1ccc(NC(=O)CN(C)C(=O)Cc2ccc(Cl)cc2Cl)cc1", "Potency": "inactive"},
      {"smiles": "O=C(CSc1nnc(-c2cnccn2)n1Cc1ccco1)c1ccc(Cl)cc1", "Potency": "inactive"},
      {"smiles": "NC(=O)C1CCN(C(=O)CCn2c(=O)oc3ccccc32)CC1", "Potency": "inconclusive: 2.31 µM [rising, partial curve, poor fit]"},
      {"smiles": "Cc1cnc2ccc(I)cc2c1/C=C/c1ccc(N(C)C)cc1", "Potency": "inconclusive: 32.6 µM [cytotoxic, partial curve, poor fit]"},
      {"smiles": "Cc1nc2nc[nH]c2cc1Br", "Potency": "inconclusive: 29.1 µM [rising, single point]"},
      {"smiles": "COc1cc(-c2noc(C)c2C#Cc2ccccn2)cc(OC)c1OC", "Potency": "active: 1.3 µM and inconclusive: 2.31 µM [cytotoxic, partial curve, poor fit]"},
      {"smiles": "Cc1c(Cl)ccc2sc(N3CCN(C(=O)c4ccco4)CC3)nc12", "Potency": "inconclusive: 2.59 µM [rising, full curve, poor fit]"},
      {"smiles": "S=c1[nH]nc(CSCCOc2ccc(Cl)cc2Cl)o1", "Potency": "inconclusive: 0.366 µM [cytotoxic, full curve, poor fit]"},
      {"smiles": "CCN(CCNC(=O)CN1CCN(Cc2ccc(Cl)cc2)C1=O)c1ccccc1", "Potency": "inconclusive: 8.2 µM [cytotoxic, partial curve]"},
      {"smiles": "CCOC(=O)c1cn(CC(=O)Nc2cccc(Cl)c2)nn1", "Potency": "inconclusive: 29.1 µM [rising, single point]"},
      {"smiles": "C/C(CCCO)=N/Nc1ccc([N+](=O)[O-])cc1[N+](=O)[O-]", "Potency": "inconclusive: 29.1 µM [rising, single point]"},
      {"smiles": "O=C(N/N=C/c1ccccn1)c1ccc(Cl)cc1", "Potency": "inactive"},
      {"smiles": "COc1ccc(NC(=O)Cn2cnc3sc(C)c(S(=O)(=O)N4CCN(C)CC4)c3c2=O)cc1OC", "Potency": "inconclusive: 29.1 µM [rising, single point]"},
      {"smiles": "CCOc1ccc(CNC(=O)c2cc3oc4ccccc4c3n2C)cc1", "Potency": "inconclusive: 11.6 µM [cytotoxic, partial curve]"},
      {"smiles": "Cc1ccc(OCc2ccc(C(=O)NCc3cccnc3)cc2)cc1C", "Potency": "inconclusive: 16.4 µM [cytotoxic, single point]"},
      {"smiles": "COc1ccc(NS(=O)(=O)c2cccc(NC(=O)c3ccccn3)c2)cc1", "Potency": "active: 10.3 µM"},
      {"smiles": "COc1cccc(-c2nc(-c3ccc(-c4ccccc4)nc3OC)no2)c1", "Potency": "inactive"},
      {"smiles": "O=C(/C=C/c1ccc(OCCCF)cc1)Nc1ccnc(-c2cccnc2)n1", "Potency": "inconclusive: 2.59 µM [cytotoxic, partial curve, poor fit]"},
      {"smiles": "O=C(O)C1CSC(CCc2ccccc2)N1", "note": "(stereo not given)", "Potency": "inconclusive: 20.6 µM [rising, partial curve, poor fit]"},
      {"smiles": "Cc1ccc(C(=O)Nc2ccc(Cl)c(-c3nc4ncccc4o3)c2)c(C)c1", "Potency": "inactive"},
      {"smiles": "CC(C)[C@H](NC(=O)N1CCn2c1nc1ccccc12)C(=O)N1CCCCC1", "Potency": "inactive"},
      {"smiles": "Cc1ccccc1-c1nc(CNC(=O)Nc2ccccc2)c(C)o1", "Potency": "inactive"},
      {"smiles": "CCN(CC(=O)Nc1ccc(NC(C)=O)cc1)CC(=O)Nc1ccc(Cl)c(Cl)c1", "Potency": "inactive"},
      {"smiles": "O=C1C=C(N2CCN(C(=O)c3ccccc3)CC2)C2(CCCCC2)O1", "Potency": "inactive"},
      {"smiles": "CCc1cnc(Nc2nc(C(N)c3ccccc3Cl)cs2)nc1", "note": "(stereo not given)", "Potency": "inconclusive: 14.6 µM [cytotoxic, partial curve, poor fit]"},
      {"smiles": "CCCCCn1c(CN2CCN(c3cccc(Cl)c3)CC2)nc2c1c(=O)[nH]c(=O)n2C", "Potency": "inconclusive: 14.6 µM [cytotoxic, single point]"},
      {"smiles": "COc1cccc(NC(=O)C2(C)CCN2C(=O)C2CCCCC2)c1", "note": "(stereo not given)", "Potency": "inactive"},
      {"smiles": "CCOCCCNC(=S)N1CCCN(c2nc3cc(C)cc(C)c3cc2C#N)CC1", "Potency": "inconclusive: 13 µM [cytotoxic, partial curve]"}
    ]}
  ]
}
